These are yes or no findings as the source states them, for the method shown. Binding seen in cells or lysates may run through a third protein. Some binding calls cover weakened binding; strength is not graded here.
How the values were obtained:
[1] = molecular target: HA-tagged ∆N-Bcl-xL (rat) (rat) (UniProt P53563); test: co-IP; HA-tagged ΔN-Bcl-xL immunoprecipitated (Pierce HA tag IP/Co-IP kit) from lysate of transfected HEK293T cells, in the presence of α-TCT (concentration not stated); blot with anti-Bax (monomeric)
[2] = molecular target: HA-tagged ∆N-Bcl-xL (rat) (rat) (UniProt P53563); test: co-IP; HA-tagged ΔN-Bcl-xL immunoprecipitated (Pierce HA tag IP/Co-IP kit) from lysate of transfected HEK293T cells, without α-TCT; blot with anti-Bax (monomeric)

By UniProt entry, the sequences of proteins in these tests, tags left out. Where a name states a change or a piece, a line headed by the entry shows the natural chain unless it says otherwise. Residues count along the entry.
UniProt P53563, residues 61-233: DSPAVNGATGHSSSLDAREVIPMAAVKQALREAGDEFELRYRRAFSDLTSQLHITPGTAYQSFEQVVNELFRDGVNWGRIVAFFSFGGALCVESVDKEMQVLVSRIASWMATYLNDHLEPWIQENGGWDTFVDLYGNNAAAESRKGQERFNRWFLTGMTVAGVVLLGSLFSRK
UniProt Q07812: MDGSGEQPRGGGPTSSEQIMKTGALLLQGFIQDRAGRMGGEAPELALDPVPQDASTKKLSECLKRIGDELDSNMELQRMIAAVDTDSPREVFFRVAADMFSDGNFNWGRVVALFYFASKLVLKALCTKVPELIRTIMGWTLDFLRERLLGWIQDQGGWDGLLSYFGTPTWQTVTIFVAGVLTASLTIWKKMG

Bax (from UniProt Q07812 1-192)
binding [1]: no binding (condition: with α-TCT) | binding [2]: binds
